Results deposited as PubChem BioAssay AID1259425 (University of Nebraska Medical Center, 2018)

- Test: 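Compare each knockdown with KSR1 silencing using changes in marker transcripts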 (primary screen)
- System: HCT116 human colon cancer cells
- Reagents: siRNA pool against human genes, 50 nM siRNA
- Measurement: 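After 50 nM siRNA pool, branched-DNA assay measures six marker transcripts per well, minus blank, normalised to the geometric mean of two housekeeping transcripts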
- Direction: BNIP3L mRNA: higher = more BNIP3L transcript after knockdown; NDRG1 mRNA: higher = more NDRG1 transcript after knockdown
This is a random part of about 14,000 reagents. Not all columns of the deposit are shown. Not stated in the record: the time to read-out.

BANK1 [SID364000658] → BNIP3L mRNA, set 1 = 0.152; NDRG1 mRNA, set 1 = 0.609
DBT [SID363993131] → BNIP3L mRNA, set 1 = 0.0662; NDRG1 mRNA, set 1 = 0.113
SLC35A1 [SID363997227] → BNIP3L mRNA, set 1 = 0.0426; NDRG1 mRNA, set 1 = 0.116
GPR34 [SID363996217] → BNIP3L mRNA, set 1 = 0.13; NDRG1 mRNA, set 1 = 0.0966
HBB [SID363991841] → BNIP3L mRNA, set 1 = 0.178; NDRG1 mRNA, set 1 = 0.388
ITCH [SID364003663] → BNIP3L mRNA, set 1 = 0.0688; NDRG1 mRNA, set 1 = 0.228
CCDC142 [SID364004164] → BNIP3L mRNA, set 1 = 0.135; NDRG1 mRNA, set 1 = 0.205
MX1 [SID363993637] → BNIP3L mRNA, set 1 = 0.13; NDRG1 mRNA, set 1 = 0.146
STAR [SID363991681] → BNIP3L mRNA, set 1 = 0.112; NDRG1 mRNA, set 1 = 0.15
RANBP17 [SID364002589] → BNIP3L mRNA, set 1 = 0.0564; NDRG1 mRNA, set 1 = 0.328
IL10RB [SID363991945] → BNIP3L mRNA, set 1 = 0.0936; NDRG1 mRNA, set 1 = 0.186
CTNNA1 [SID363993116] → BNIP3L mRNA, set 1 = 0.124; NDRG1 mRNA, set 1 = 0.129
RAD1 [SID363994009] → BNIP3L mRNA, set 1 = 0.0715; NDRG1 mRNA, set 1 = 0.225
HELZ2 [SID364004374] → BNIP3L mRNA, set 1 = 0.0915; NDRG1 mRNA, set 1 = 0.11
NCAPH [SID363999427] → BNIP3L mRNA, set 1 = 0.068; NDRG1 mRNA, set 1 = 0.176
MYCLP1 [SID363996287] → BNIP3L mRNA, set 1 = 0.128; NDRG1 mRNA, set 1 = 0.284
EBNA1BP2 [SID363997590] → BNIP3L mRNA, set 1 = 0.292; NDRG1 mRNA, set 1 = 1.14
PTPRH [SID363993998] → BNIP3L mRNA, set 1 = 0.139; NDRG1 mRNA, set 1 = 0.335
PPIA [SID364002027] → BNIP3L mRNA, set 1 = 0.104; NDRG1 mRNA, set 1 = 0.242

Reformatted: 2 of the entries above
target gene | PubChem SID | BNIP3L mRNA, set 1 | NDRG1 mRNA, set 1
SLC35A1 | SID363997227 | 0.0426 | 0.116
GPR34 | SID363996217 | 0.13 | 0.0966
